In publication PMC9831603:
These are yes or no findings as the source states them, for the method shown. Binding seen in cells or lysates may run through a third protein. A yes stands for co-enrichment or nearness to the bait. Other partners may have been found. For some assays here: No binding means not detected with the bait.

By UniProt entry, the sequences of proteins in these tests, tags left out. Where a name states a change or a piece, a line headed by the entry shows the natural chain unless it says otherwise. Chains listed by the source or under a name are the forms on record and can include a tag or linker.
Arl3-Q71L-FLAG (P36405, form named): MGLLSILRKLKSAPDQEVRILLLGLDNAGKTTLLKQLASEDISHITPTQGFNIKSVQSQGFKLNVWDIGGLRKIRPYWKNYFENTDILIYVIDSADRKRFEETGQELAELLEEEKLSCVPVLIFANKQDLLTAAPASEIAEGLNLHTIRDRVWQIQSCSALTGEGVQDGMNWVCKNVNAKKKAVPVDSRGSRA
Arl3-T31N-FLAG (P36405, form named): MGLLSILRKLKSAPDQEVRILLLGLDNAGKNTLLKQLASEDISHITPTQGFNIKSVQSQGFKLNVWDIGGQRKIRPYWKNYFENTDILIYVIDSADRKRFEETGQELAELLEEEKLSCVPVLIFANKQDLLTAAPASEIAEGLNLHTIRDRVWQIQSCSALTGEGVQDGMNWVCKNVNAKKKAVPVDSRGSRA

Assays:
Arl3-Q71L-FLAG (human) = Arl3-Q71L-FLAG (human) (UniProt P36405); assay: affinity purification with mass spectrometry; FLAG immunoprecipitation from DSS-cross-linked AD-293 cells expressing Arl3-Q71L-FLAG or Arl3-T31N-FLAG; in-gel tryptic digest, LC-MS/MS
Arl3-T31N-FLAG (human) = Arl3-T31N-FLAG (human) (UniProt P36405); assay: as above

B1: BART (endogenous) (protein, UniProt Q9Y2Y0 1-163)
chain: MDALEGESFALSFSSASDAEFDAVVGYLEDIIMDDEFQLLQRNFMDKYYLEFEDTEENKLIYTPIFNEYISLVEKYIEEQLLQRIPEFNMAAFTTTLQHHKDEVAGDIFDMLLTFTDFLAFKEMFLDYRAEKEGRGLDLSSGLVVTSLCKSSSLPASQNNLRH
Arl3-Q71L-FLAG (human)
  binding: binds
Arl3-T31N-FLAG (human)
  binding: no binding
